For 2 molecules, binding results are on record in article PMC10726618.

The target in this assay is AKT, in HCC cells (Huh1) (human (endogenous in Huh1)). The experiment in a line: co-IP; co-IP in HCC cells (Huh1) with STEAP4 overexpression, empty vector, STEAP4 knockdown or scramble; PDK1 as positive control; which protein was precipitated is not told.

No constants are given. Whether binding was seen depends on the method and setting. In cells and extracts the contact can be indirect. Binding calls can cover weak binding; strength is not graded here.

B1: STEAP4, in HCC cells (Huh1) (protein, UniProt Q687X5 1-459)
chain: MEKTCIDALPLTMNSSEKQETVCIFGTGDFGRSLGLKMLQCGYSVVFGSRNPQKTTLLPSGAEVLSYSEAAKKSGIIIIAIHREHYDFLTELTEVLNGKILVDISNNLKINQYPESNAEYLAHLVPGAHVVKAFNTISAWALQSGALDASRQVFVCGNDSKAKQRVMDIVRNLGLTPMDQGSLMAAKEIEKYPLQLFPMWRFPFYLSAVLCVFLFFYCVIRDVIYPYVYEKKDNTFRMAISIPNRIFPITALTLLALVYLPGVIAAILQLYRGTKYRRFPDWLDHWMLCRKQLGLVALGFAFLHVLYTLVIPIRYYVRWRLGNLTVTQAILKKENPFSTSSAWLSDSYVALGILGFFLFVLLGITSLPSVSNAVNWREFRFVQSKLGYLTLILCTAHTLVYGGKRFLSPSNLRWYLPAAYVLGLIIPCTVLVIKFVLIMPCVDNTLTRIRQGWERNSKH
As to B1, the binding result is listed as “binds”.

B2: PDK1 (protein, UniProt O15530 1-556)
chain: MARTTSQLYDAVPIQSSVVLCSCPSPSMVRTQTESSTPPGIPGGSRQGPAMDGTAAEPRPGAGSLQHAQPPPQPRKKRPEDFKFGKILGEGSFSTVVLARELATSREYAIKILEKRHIIKENKVPYVTRERDVMSRLDHPFFVKLYFTFQDDEKLYFGLSYAKNGELLKYIRKIGSFDETCTRFYTAEIVSALEYLHGKGIIHRDLKPENILLNEDMHIQITDFGTAKVLSPESKQARANSFVGTAQYVSPELLTEKSACKSSDLWALGCIIYQLVAGLPPFRAGNEYLIFQKIIKLEYDFPEKFFPKARDLVEKLLVLDATKRLGCEEMEGYGPLKAHPFFESVTWENLHQQTPPKLTAYLPAMSEDDEDCYGNYDNLLSQFGCMQVSSSSSSHSLSASDTGLPQRSGSNIEQYIHDLDSNSFELDLQFSEDEKRLLLEKQAGGNPWHQFVENNLILKMGPVDKRKGLFARRRQLLLTEGPHLYYVDPVNKVLKGEIPWSQELRPEAKNFKTFFVHTPNRTYYLMDPSGNAHKWCRKIQEVWRQRYQSHPDAAVQ
Regarding B2, the binding entry was “binds”.
